Test results reported in PubChem BioAssay AID624291 (National Center for Advancing Translational Sciences (NCATS), 2012).
Hit rate of the full screen: of about 350,000 compounds, about 220 (0.063%) were called active. The inconclusive results got no clear call from the source; some entries with a clear call stand among them for comparison. Calls come from the whole dose curve; as a rule, active = well fitted activation curve with a large enough effect; inconclusive = small, poorly fitted or top-dose-only effect; inactive = no such curve, though single readings can be large or run the other way. A potency beside an inconclusive call is a rough fit, not a confirmed value.

Experiment: qHTS for Activators of Integrin-Mediated Alleviation for Muscular Dystrophy; note: nearly all actives have a fitted effect of over 60% in size;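 for activation: 100% = response of the positive control SU9516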
Details: alpha7betagal myoblasts, beta-gal FDG fluorescence, 48 h; activation: at 38.3 µM (top of the series)
Outline: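 alpha7betagal+/- myoblasts (passage 13, 250/well) treated 48 h at 37C with compounds at 1:260 dilution of DMSO stock. Lysed, then beta-galactosidase activity read as FDG fluorescence (ex 480/em 540) after 30 min, with pre-read for autofluorescence.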
Potency is the fitted concentration of half-maximal effect.

SMILES | Potency | activation
CCc1ccc2nc(NC(=O)C3CCN(c4ncnc5sc(C)c(C)c45)CC3)sc2c1 | inconclusive: 3.55 µM [activator, single point] | 
CC1Oc2ccccc2N(CC(=O)N(Cc2ccccc2)Cc2ccccn2)C1=O (stereo not drawn) |  | inactive: -17.8%
Cc1cc(=O)oc2cc(NC(=O)c3ccccc3C(=O)O)ccc12 | inconclusive: 3.16 µM [activator, single point] | 
Cc1ccccc1OCc1nc(-c2ccc(NC(=O)c3cccs3)cc2)no1 | inconclusive: 0.447 µM [activator, partial curve, poor fit] | 
O=C(Oc1cccc(/C=N/NC(=O)c2ccccn2)c1)c1ccc([N+](=O)[O-])cc1 | inconclusive: 22.4 µM [activator, single point] | 
CC1(C)C(=O)Nc2ccccc2N1C(=O)CN1C(=O)NC(CCc2ccccc2)C1=O (stereo not drawn) | inconclusive: 5.01 µM [activator, single point] | 
C#CCOCCOCCOCCNc1nc(N2CCN(C(=O)CCCCCCCCCCNC(=O)Cn3cc(CCCCCN)nn3)CC2)nc(N2CCN(C(=O)CCCCCCCCCCNC(=O)Cn3cc(C[C@@H](C)O)nn3)CC2)n1 |  | inactive: -6.09%
NC(=S)Nc1ccc2cn[nH]c2c1 | inconclusive: 10 µM [activator, partial curve] | 
O=C(Nc1ccccc1N1CCOCC1)c1ccc(Cl)c(S(=O)(=O)NCc2ccco2)c1 |  | inactive: -9.87%
Cc1cccc(NS(=O)(=O)c2ccc(C3CCCCC3)cc2)c1 |  | inactive: -44.7%
CN(C)C(=S)Nc1cccc(C(F)(F)F)c1 | active: 10 µM | 
CC1(C)CC(=O)C(C(C#Cc2ccccc2)C2=C(O)CC(C)(C)CC2=O)=C(O)C1 |  | inactive: -21.2%
CCC1=NN(C(=O)C(=O)Nc2ccc(Br)cc2)C(O)(C(F)(F)F)C1 (stereo not drawn) |  | inactive: 12.4%
CCN(CC)CCCN(C(=O)c1ccco1)c1nc(-c2ccc(C)cc2)cs1 |  | inactive: -58.9%
CCN1CCN(S(=O)(=O)c2ccc(Cl)c(C(=O)N(CC(C)C)C3CCS(=O)(=O)C3)c2)CC1 (stereo not drawn) | inconclusive: 31.6 µM [activator, single point] | 
CN(C)CCCn1cnc2c1c(=O)[nH]c(=O)n2Cc1ccccc1 | inconclusive: 28.2 µM [activator, single point] | 
COc1cc(/C=N/NC(=O)c2cc(-c3ccccc3OC(C)C)nc3ccccc23)ccc1O | inconclusive: 14.1 µM [activator, partial curve, poor fit] | 
COc1cc(/C=N/OCC(=O)NC2CCS(=O)(=O)C2)ccc1OC(F)F (stereo not drawn) | inconclusive: 5.01 µM [activator, single point] | 
CC(=O)N[C@@H](Cc1c[nH]c2ccccc12)C(=O)OCC(=O)Nc1ccc(S(=O)(=O)N(C)C)cc1 | inconclusive: 5.01 µM [activator, partial curve, poor fit] | 
CC(=O)NCC1CCCN(C(=O)c2ccc(OC3CCN(Cc4ccccn4)CC3)cc2)C1 (stereo not drawn) | inconclusive: 5.01 µM [activator, single point] | 
CC(C)c1nnc(NC(=O)c2cc3ccccc3o2)s1 | inconclusive: 31.6 µM [activator, single point] | 
COc1ccc([N+](=O)[O-])cc1N(CC(=O)NC1CCCC1)S(C)(=O)=O |  | inconclusive: -32.3% [activator]
CN(/N=C/c1ccc(Cl)cc1Cl)c1ncc(Cl)cc1C(F)(F)F | inconclusive: 11.2 µM [activator, partial curve, poor fit] | 

SMILES | Potency | activation
Cc1nc(SCC2(C)CC2(Cl)Cl)n[nH]1 (stereo not drawn) | inconclusive: 31.6 µM [activator, partial curve, poor fit] | 
COc1ccc(C2CC(=O)OC3=C2C(=O)CC(C)(C)C3)c(OC)c1 (stereo not drawn) | inconclusive: 28.2 µM [activator, single point] | 
Cc1cccc(NC(=S)NCCC(c2ccccc2)c2ccccc2)c1 | inconclusive: 15.8 µM [activator, single point] | 
CCCCc1noc(-c2c(-c3ccccc3Cl)noc2C)n1 | inconclusive: 28.2 µM [activator, single point] | 
CCOc1ccc(NC(=O)CN(C)C(=O)c2nc3nc(C)cc(C)n3n2)cc1OCC | inconclusive: 4.47 µM [activator, single point] | 
Cc1ccc(C)c(NC(=S)N2CCCCC2CO)c1 (stereo not drawn) |  | inactive: -5.4%
Cc1cc(/C=C2/NC(=O)N(c3ccccc3)C2=O)c(C)n1C(C)C | inconclusive: 0.447 µM [activator, full curve, poor fit] | 
Cc1ccc(-c2cc(C(=O)NN=C3CCCC3)c3ccccc3n2)cc1 |  | inactive: 2.91%
COc1ccc(-c2cc3nc(CCl)[nH]c(=O)c3s2)cc1 |  | inactive: -65.9%
CC(=O)N(C)c1ccc(NC(=O)Nc2cccc3ccccc23)cc1 | inconclusive: 2.51 µM [activator, single point] | 
CN1C(=O)C2(N=c3ccccc3=N2)c2ccccc21 |  | inactive: 0.934%
Cc1nc(N2CCN(c3ccccn3)CC2)c2c(C)c(C(=O)Nc3c(C)cc(Br)cc3C)sc2n1 |  | inactive: 3.37%
COC1=C/C(=C/c2c(O)c(C#N)c3ccccn23)C=CC1=O | inconclusive: 5.01 µM [activator, single point] | 
CN1CCN(C(=O)/C(=C/c2cccs2)NC(=O)c2ccco2)CC1 | inconclusive: 28.2 µM [activator, single point] | 
CC(C)S(=O)(=O)c1csc(NC(=O)Nc2cc(Cl)ccc2Cl)c1Cl | inconclusive: 28.2 µM [activator, single point] | 
CCOC(=O)NNC(=O)CCn1c2c(c3ccccc31)CCCC2 | inconclusive: 28.2 µM [activator, single point] | 
CSc1cccc(NC(=O)CCNS(=O)(=O)c2ccc3[nH]c(=O)oc3c2)c1 | inconclusive: 4.47 µM [activator, full curve, poor fit] | 
CC(NC(=O)COC(=O)CSCc1ccccc1)c1ccccc1 (stereo not drawn) | inconclusive: 5.01 µM [activator, single point] | 
NC(=O)c1c(NC(=O)CN2C(=O)NC(Cc3ccccc3)C2=O)sc2c1CCC2 (stereo not drawn) | inconclusive: 1.26 µM [activator, partial curve, poor fit] | 
S=c1[nH]c2ccc(Cl)cc2s1 |  | inactive: 10.3%
O=C1NC(=O)/C(=C\c2ccsc2)N1 |  | inactive: -9.42%
CCCCCCC(=O)N1CCN(c2cc3c(cc2F)c(=O)c(C(=O)O)cn3CC)CC1 | inconclusive: 31.6 µM [activator, single point] | 
CC1CCCN(C(=O)c2ccc3c(c2)OCCO3)C1 (stereo not drawn) |  | inactive: -16.8%

Five records picked at random from the list so far:
SMILES | Potency | activation
CC1(C)C(=O)Nc2ccccc2N1C(=O)CN1C(=O)NC(CCc2ccccc2)C1=O (stereo not drawn) | inconclusive: 5.01 µM [activator, single point] | 
COc1cc(/C=N/OCC(=O)NC2CCS(=O)(=O)C2)ccc1OC(F)F (stereo not drawn) | inconclusive: 5.01 µM [activator, single point] | 
Cc1cccc(NS(=O)(=O)c2ccc(C3CCCCC3)cc2)c1 |  | inactive: -44.7%
CCCCc1noc(-c2c(-c3ccccc3Cl)noc2C)n1 | inconclusive: 28.2 µM [activator, single point] | 
CC(C)S(=O)(=O)c1csc(NC(=O)Nc2cc(Cl)ccc2Cl)c1Cl | inconclusive: 28.2 µM [activator, single point] | 

Following part:

SMILES | Potency | activation
CCN1CCN(S(=O)(=O)Cc2ccccc2Cl)CC1 | inconclusive: 5.62 µM [activator, full curve, poor fit] | 
CCn1c(=O)c(C(=O)CC#N)c(N)n(Cc2ccccc2)c1=O | inconclusive: 5.01 µM [activator, single point] | 
COc1ccc(C(=O)Nc2ccc(Nc3ccccc3)cc2)cc1[N+](=O)[O-] |  | inactive: -24.3%
CNC(=O)CSc1nc2nn(-c3ccccc3)c(=O)c-2c2n1CCCCC2 | inconclusive: 15.8 µM [activator, partial curve, poor fit] | 
CCCC(=O)Oc1ccc(C2NC(=O)c3ccccc3O2)cc1OC (stereo not drawn) | inconclusive: 5.01 µM [activator, single point] | 
CCOc1ccc(N(CC(=O)NCC2CCCO2)S(=O)(=O)c2ccc(C)cc2)cc1 (stereo not drawn) | inconclusive: 12.6 µM [activator, partial curve, poor fit] | 
CCOc1ccc(CN(C)C(=O)c2cccc(S(=O)(=O)N3CCCC3)c2)cc1OC | inconclusive: 12.6 µM [activator, single point] | 
Cc1cc(-c2ccco2)n(-c2ccccc2)n1 |  | inactive: -22.8%
CC[N+]1(CC(O)COC2CC(C)CC(C)(C)C2)CCOCC1 (stereo not drawn) | inconclusive: 1.78 µM [activator, partial curve, poor fit] | 
Cc1nc(CNC(=O)CC2C(=O)NCCN2Cc2cccc(Oc3ccccc3)c2)cs1 (stereo not drawn) |  | inactive: 6.35%
C=CCn1c(=S)[nH]c2scc(-c3cccs3)c2c1=O | inconclusive: 28.2 µM [activator, single point] | 
O=C(OCc1cc([N+](=O)[O-])cc2c1OCOC2)c1ccc2ccccc2n1 |  | inactive: 13.1%
Cc1ccc(Nc2c(-c3ccccc3)nc3cnccn23)cc1 | inconclusive: 0.398 µM [activator, partial curve, poor fit] | 
O=c1c(Cc2ccccc2)c(O)ccn1CCc1cnc[nH]1 | inconclusive: 3.16 µM [activator, single point] | 
Cc1ccc(S(=O)(=O)/N=C(\Nc2cc(C)on2)c2ccc(Cl)cc2)cc1 | inconclusive: 28.2 µM [activator, single point] | 
Cc1ccc(C)n1-c1ccc(C(=O)NN)cc1 |  | inactive: 11.2%
COc1ccc(NC(=O)Cc2nnc(SCC(=O)NC3CCCC3)n2C)cc1 |  | inactive: 9.2%
COc1cc(NC(=O)c2ccccc2)c(OC)cc1NC(=O)Cc1ccc(Br)cc1 | inconclusive: 3.16 µM [activator, single point] | 
Cc1cc2[nH]c(=O)c(=O)[nH]c2cc1S(=O)(=O)Nc1cccc(Cl)c1 | inconclusive: 8.91 µM [activator, partial curve, poor fit] | 
CCOC(=O)c1sc(C)c2c1NC(C)(c1ccccc1)NC2=O (stereo not drawn) |  | inactive: -2.11%
O=C(NCCCNC(=O)c1cnccn1)c1ccc(Br)cc1 | inconclusive: 6.31 µM [activator, partial curve, poor fit] | 
C/C(=N\OC(=O)Nc1ccccc1)c1ccc(C)cc1 | inconclusive: 7.94 µM [activator, partial curve, poor fit] | 
